Measurements as given in article doi:10.1101/2020.06.14.145961.
These are yes or no findings as the source states them, for the method shown. In cells and extracts the contact can be indirect. Some results given as binding are weak or reduced against the parent protein; the word gives no strength.

Amino acid sequences for entries named in this document (tags omitted). A change or cut given only in a name is not applied to a line headed by its entry.
UniProt O48538: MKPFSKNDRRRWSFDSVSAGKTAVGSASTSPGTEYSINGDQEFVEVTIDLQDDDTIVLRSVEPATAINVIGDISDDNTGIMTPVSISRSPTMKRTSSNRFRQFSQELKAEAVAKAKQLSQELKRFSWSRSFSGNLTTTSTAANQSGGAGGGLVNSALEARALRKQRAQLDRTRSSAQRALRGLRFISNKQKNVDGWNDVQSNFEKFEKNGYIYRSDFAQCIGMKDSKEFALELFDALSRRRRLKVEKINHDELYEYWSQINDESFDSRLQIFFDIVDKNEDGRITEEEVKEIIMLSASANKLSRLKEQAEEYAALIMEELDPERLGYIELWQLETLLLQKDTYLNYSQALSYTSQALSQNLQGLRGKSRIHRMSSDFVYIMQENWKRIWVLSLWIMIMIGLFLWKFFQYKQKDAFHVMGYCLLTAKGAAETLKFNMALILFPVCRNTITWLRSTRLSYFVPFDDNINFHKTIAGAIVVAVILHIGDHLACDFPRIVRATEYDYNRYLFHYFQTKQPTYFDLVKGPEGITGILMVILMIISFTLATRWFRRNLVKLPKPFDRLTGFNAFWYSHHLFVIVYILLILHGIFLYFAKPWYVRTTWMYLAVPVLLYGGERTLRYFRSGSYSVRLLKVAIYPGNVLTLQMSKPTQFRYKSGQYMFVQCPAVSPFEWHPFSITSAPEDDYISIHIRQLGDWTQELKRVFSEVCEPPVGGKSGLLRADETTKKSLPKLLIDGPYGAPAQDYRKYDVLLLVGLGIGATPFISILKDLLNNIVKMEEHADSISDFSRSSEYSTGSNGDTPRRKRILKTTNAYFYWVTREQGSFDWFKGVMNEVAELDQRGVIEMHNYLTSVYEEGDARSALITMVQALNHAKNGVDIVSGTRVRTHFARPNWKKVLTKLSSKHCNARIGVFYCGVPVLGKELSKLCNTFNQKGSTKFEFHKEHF
UniProt Q9FIJ0: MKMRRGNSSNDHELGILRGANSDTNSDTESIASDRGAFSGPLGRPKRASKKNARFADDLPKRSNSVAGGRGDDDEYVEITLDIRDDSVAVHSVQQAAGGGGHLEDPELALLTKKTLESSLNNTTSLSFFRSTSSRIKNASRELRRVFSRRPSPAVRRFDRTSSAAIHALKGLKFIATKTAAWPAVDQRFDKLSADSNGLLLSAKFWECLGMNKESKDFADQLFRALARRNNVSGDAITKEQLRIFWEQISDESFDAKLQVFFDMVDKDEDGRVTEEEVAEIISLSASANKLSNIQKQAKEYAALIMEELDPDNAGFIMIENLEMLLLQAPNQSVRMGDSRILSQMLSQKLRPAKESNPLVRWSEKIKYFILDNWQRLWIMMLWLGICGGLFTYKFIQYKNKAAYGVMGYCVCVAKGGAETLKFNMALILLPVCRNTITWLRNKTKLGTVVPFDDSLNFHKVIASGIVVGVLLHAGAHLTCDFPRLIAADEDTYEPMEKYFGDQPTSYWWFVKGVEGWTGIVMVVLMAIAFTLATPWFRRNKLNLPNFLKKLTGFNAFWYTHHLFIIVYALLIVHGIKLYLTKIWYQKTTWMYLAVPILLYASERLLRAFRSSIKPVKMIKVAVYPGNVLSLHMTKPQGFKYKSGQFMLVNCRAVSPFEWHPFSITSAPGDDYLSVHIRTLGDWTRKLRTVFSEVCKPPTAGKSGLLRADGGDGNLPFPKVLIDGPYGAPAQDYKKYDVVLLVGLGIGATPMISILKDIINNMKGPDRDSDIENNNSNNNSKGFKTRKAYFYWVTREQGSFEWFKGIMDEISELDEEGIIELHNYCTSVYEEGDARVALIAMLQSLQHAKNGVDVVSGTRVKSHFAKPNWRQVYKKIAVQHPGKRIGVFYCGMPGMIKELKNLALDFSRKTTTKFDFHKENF
UniProt Q38912: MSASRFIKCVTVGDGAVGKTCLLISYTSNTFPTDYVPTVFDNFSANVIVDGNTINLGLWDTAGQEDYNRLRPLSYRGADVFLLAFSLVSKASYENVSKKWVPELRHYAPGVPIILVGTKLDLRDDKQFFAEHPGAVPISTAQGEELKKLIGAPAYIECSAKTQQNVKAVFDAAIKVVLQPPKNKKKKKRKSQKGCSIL

Columns and labels:
[1] = target: GFP-RBOHF (Arabidopsis thaliana) (UniProt O48538); assay: FRET or BRET
[2] = target: GFP-RBOHD (RESPIRATORY BURST OXIDASE HOMOLOG PROTEIN D) (Arabidopsis thaliana) (UniProt Q9FIJ0); assay: FRET or BRET

binding [1]	binding [2]	Substance
no binding	no binding	RFP-ROP6-DN (dominant negative, GDP-locked Rho-of-Plant 6, T20N) (from UniProt Q38912 1-198) (enzyme)
binds	binds	RFP-ROP6-CA (constitutive active, GTP-locked Rho-of-Plant 6, G15V) (from UniProt Q38912 1-198) (enzyme)
